For the assay, the target named is α-subunit ring assembly intermediate (Band 3): intact ring of 20S α1–α7 subunits (human (endogenous in HAP1)) (UniProt P60900). The experiment in a line: native gel or EMSA; cell extracts (PI31 WT and KO, with or without 100 U/ml IFNγ 24 h, with or without POMP siRNA) on 3–8% polyacrylamide Tris-acetate native gels, 4°C, 90 mM Tris-borate, 5 mM MgCl2, 100 µM ATP; western blotting of the native gel and of a second-dimension SDS-PAGE; proteins found in the same band. (In general: Mobility shift assays separate free from complexed probe on a gel.)

Protein sequences, listed by entry. Tags and fused reporters are not part of them. Lines headed by an entry give the natural chain unless they say otherwise; changes in a name come on top.
UniProt P60900: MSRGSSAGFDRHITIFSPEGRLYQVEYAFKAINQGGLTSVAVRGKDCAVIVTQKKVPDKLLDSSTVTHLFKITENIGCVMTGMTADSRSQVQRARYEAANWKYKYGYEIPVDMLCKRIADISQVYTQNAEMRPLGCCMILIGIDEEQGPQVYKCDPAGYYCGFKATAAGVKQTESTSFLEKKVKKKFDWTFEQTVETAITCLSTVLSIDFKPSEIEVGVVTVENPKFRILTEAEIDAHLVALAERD

These are yes or no findings as the source states them, for the method shown. Some entries that bind do so weakly or less than the wild type.

B1: PAC3/PAC4 heterodimeric chaperone (complex, UniProt Q9BT73 1-122; Q5JS54 1-123)
chain 1: MEDTPLVISKQKTEVVCGVPTQVVCTAFSSHILVVVTQFGKMGTLVSLEPSSVASDVSKPVLTTKVLLGQDEPLIHVFAKNLVAFVSQEAGNRAVLLAVAVKDKSMEGLKALREVIRVCQVW
chain 2: MEGLVVAAGGDVSLHNFSARLWEQLVHFHVMRLTDSLFLWVGATPHLRNLAVAMCSRYDSIPVSTSLLGDTSDTTSTGLAQRLARKTNKQVFVSYNLQNTDSNFALLVENRIKEEMEAFPEKF
As for B1, the binding entry is “binds”.

Values taken from article PMC12148024.
